Library screening results

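Whole-cell assay for inhibitors of Mycobacterium tuberculosis growth, labelled Cornell in the record; the read-out is not stated. The concentration is filed as 10 mM, unlikely as a test dose, so the dose is not known. The record gives no direction; compounds strong in two other growth screens of this library score well above the rest, so higher reads as stronger inhibition. Size under these conditions: about 53,000 compounds, about 900 of them at 50% or above in at least one test.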

Values are the deposited “Percent Effect”, in %. How 0% and 100% were set is not recorded. Most values in the screen are low, and negative values occur. Compounds were drawn at random from those tested, without regard to their results.

compound	percent effect
O=C(O)C(F)(F)F.O=C(O)C(F)(F)F.[H][C@@]12CCN(Cc3cccnc3)[C@]1([H])CC[C@H](COCC1CCOCC1)O2	-35.81%
Cc1noc(COCC(=O)Nc2ncccc2Br)n1	-21.72%
CCn1c(N)nc2cc(C(=O)NCc3ccccc3Cl)cnc21	-45.78%
CCSCCNC(=O)Nc1cc(C(=O)N2CCOCC2)ccc1Cl	2.24%
[H][C@@]12CCN(C(=O)c3cccc(C)n3)C[C@@]1([H])O[C@H](C)C2	8.772%
Cn1cccc1C1CCCN1C(=O)NCCCn1cccn1 (configuration not stated)	10.24%
CN(Cc1noc(C2CC2)n1)CC1CCN(CCO)CC1	-54.6%
N#Cc1cccnc1NCc1cccc(C(=O)NCC2CCCCO2)c1 (configuration not stated)	27.77%
Cc1nc(C2CCCNC2)cc(N(Cc2nccn2C)C2CC2)n1 (configuration not stated)	-6.632%
Cc1ccc(C)c(C(O)CN(C)Cc2nnc3ccccn23)c1 (configuration not stated)	-5.677%
CC(=O)NCCNc1nc(C2CCCC2)nc2c1cnn2C	-11.83%
Cc1cc(NCCc2c[nH]cn2)nc(-c2cccnc2)n1	7.76%
O=C1COc2cc(S(=O)(=O)NCCC3=CCCCC3)c(Cl)cc2N1	-12.4%
COCCN(Cc1cccc(O)c1)Cc1ccccc1F	-18.35%
CCCNCc1cn(C)nc1-c1cccnc1.Cl	3.53%
CC(C)C(C(=O)O)c1cccc(Cl)c1 (configuration not stated)	28.48%
Cc1noc(CN(C)c2ccccc2)n1	-9.275%
O=C(c1ccccc1C1CCNC1)N1CCC(N2CCC(O)CC2)CC1 (configuration not stated)	6.638%
Oc1nc(C2CC2)nc2c1nnn2C1CCN(Cc2ccoc2)CC1	6.674%
CC(=O)Nc1sc2c(c1C(=O)O)CCc1ccccc1-2	-33.7%
Cc1ccc(C(=O)N2CCN(C(=O)Cc3ccccn3)CC2)c(C)c1	-20.82%
CS(=O)(=O)NC[C@]1(O)CCN(C(=O)Cc2cccs2)C[C@H]1O	-46.74%
CCn1cc(CN2CCCN(C(=O)C3(C)CCOCC3)CC2)cn1	19.41%
CC(C)(CC(=O)N(CC(N)=O)C1CCCC1)c1ccccc1	-31.38%
CSCc1nc(CNC(=O)C2CCCN(C(=O)N(C)C)C2)cs1 (configuration not stated)	7.826%
CCn1cc(CN2CCc3nc(N4CCOCC4)nc(O)c3CC2)cn1	10.15%
CC1c2ncc(COCC3CCCC3)n2CCN1S(=O)(=O)N(C)C (configuration not stated)	32.58%
[H][C@]12CC[C@]([H])(CN(S(=O)(=O)N(C)C)C1)N(C(=O)c1sc(CC)nc1C)C2	-0.1161%
CNC(=O)c1cn[nH]c1C1CCN(Cc2ccccc2OC)C1 (configuration not stated)	4.436%
CN(C)S(=O)(=O)N1CC[C@]2(C[C@@H](Oc3cccnc3)CO2)C1.O=C(O)C(F)(F)F	18.4%
Cn1cc(-c2nnc3sc(C4CC4)nn23)cn1	-0.1995%
CCn1ccnc1S(=O)(=O)Cc1c(C)cc(C)c(C(C)=O)c1C	27.01%
CCOCC1CN(Cc2cnn(C)c2)Cc2c1cnn2CC.O=C(O)C(F)(F)F (configuration not stated)	-39.31%
CCn1cc2c(n1)C(COCC1CC1)CN(C(=O)c1cc(C)on1)C2 (configuration not stated)	24.13%
O=C(O)C(F)(F)F.O=C(O)C(F)(F)F.c1cncc(N2CCOCC3(CN(Cc4cccs4)CCO3)C2)c1 (configuration not stated)	-9.787%
O=C(c1ccc(-c2ccccc2)[nH]c1=O)N1CCCn2ncnc21	3.648%
CCN(C)c1ncnc2c1CCN(C(=O)N1CCOCC1)CC2	-27.18%
Cc1nnc(N2CCC(CCn3ccnc3C)CC2)o1	-15.51%
COc1cccc(F)c1C(C)NC(=O)NCc1ccnc(C)n1 (configuration not stated)	-14.87%
[H][C@@]12CN(Cc3ccoc3)C[C@]1([H])OCCN2CC1CCCO1 (some centres not stated)	29.54%
CO[C@H]1COCCN(C(=O)c2ccno2)C1	6.875%
Cn1ncc2c(NCC(=O)N3CCNCC3)nc(C(C)(C)C)nc21	-4.129%
CNc1cc(C)nc(-c2cc(NC)nc3[nH]ccc23)n1	47.36%
O=C(O)C(F)(F)F.[H][C@]12CCC[C@@]1(COCC1CCOCC1)CN(Cc1cc(C)on1)C2	20.53%
CN1CC(c2ccccc2)C2(CCN(C(=O)c3cccn3C)CC2)C1=O (configuration not stated)	4.971%

Repeated from the top, 3 entries:

- O=C(O)C(F)(F)F.O=C(O)C(F)(F)F.[H][C@@]12CCN(Cc3cccnc3)[C@]1([H])CC[C@H](COCC1CCOCC1)O2 | -35.81%
- Cc1noc(COCC(=O)Nc2ncccc2Br)n1 | -21.72%
- CCn1c(N)nc2cc(C(=O)NCc3ccccc3Cl)cnc21 | -45.78%

Data taken from ChEMBL document CHEMBL3988442, “University of Dundee, Small-Polar-MMV Screening Library” (2021).